Here are results for three substances from paper doi:10.1101/2025.04.28.650959.

By UniProt entry, the sequences of proteins in these tests, tags left out.
UniProt Q14258, whole entry: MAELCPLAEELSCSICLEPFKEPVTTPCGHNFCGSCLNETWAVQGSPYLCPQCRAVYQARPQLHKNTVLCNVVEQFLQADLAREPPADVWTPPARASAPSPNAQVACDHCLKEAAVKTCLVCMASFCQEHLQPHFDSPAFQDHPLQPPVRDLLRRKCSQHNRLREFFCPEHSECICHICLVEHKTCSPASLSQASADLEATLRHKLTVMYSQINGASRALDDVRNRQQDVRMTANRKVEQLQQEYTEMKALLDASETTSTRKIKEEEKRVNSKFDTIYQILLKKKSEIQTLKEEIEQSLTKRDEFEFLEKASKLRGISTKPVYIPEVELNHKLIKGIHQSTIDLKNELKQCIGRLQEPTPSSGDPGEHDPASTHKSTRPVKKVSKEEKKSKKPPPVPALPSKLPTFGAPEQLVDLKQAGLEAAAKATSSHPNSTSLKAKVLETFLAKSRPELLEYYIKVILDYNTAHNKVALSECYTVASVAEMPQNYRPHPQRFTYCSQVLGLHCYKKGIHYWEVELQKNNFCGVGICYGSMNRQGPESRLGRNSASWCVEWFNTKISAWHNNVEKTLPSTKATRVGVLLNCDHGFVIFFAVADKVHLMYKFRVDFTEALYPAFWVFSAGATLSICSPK
UniProt Q7Z2W4, whole entry: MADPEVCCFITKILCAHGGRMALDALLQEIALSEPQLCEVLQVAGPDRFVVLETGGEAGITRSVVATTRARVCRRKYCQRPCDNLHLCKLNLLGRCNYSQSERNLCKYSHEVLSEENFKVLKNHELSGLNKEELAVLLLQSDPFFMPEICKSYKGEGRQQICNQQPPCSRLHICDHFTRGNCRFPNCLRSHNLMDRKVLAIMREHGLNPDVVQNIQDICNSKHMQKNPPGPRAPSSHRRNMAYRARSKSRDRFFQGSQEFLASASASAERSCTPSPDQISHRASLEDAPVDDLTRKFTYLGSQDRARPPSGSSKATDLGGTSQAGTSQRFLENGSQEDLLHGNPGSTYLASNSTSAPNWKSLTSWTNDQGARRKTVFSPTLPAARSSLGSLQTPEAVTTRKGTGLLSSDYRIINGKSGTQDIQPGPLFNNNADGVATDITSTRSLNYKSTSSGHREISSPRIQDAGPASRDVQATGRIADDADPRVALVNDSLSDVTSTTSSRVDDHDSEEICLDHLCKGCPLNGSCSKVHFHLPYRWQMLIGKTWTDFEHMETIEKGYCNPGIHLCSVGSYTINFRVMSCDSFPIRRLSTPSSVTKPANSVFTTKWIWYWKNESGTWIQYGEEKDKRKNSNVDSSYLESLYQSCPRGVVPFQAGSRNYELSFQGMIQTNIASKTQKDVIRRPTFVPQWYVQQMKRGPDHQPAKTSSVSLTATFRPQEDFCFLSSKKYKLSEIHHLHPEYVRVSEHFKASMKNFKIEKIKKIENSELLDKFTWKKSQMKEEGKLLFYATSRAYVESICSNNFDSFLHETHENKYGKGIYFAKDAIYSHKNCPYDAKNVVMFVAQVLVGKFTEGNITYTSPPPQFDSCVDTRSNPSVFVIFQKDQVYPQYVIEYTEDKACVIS
UniProt O15037, whole entry: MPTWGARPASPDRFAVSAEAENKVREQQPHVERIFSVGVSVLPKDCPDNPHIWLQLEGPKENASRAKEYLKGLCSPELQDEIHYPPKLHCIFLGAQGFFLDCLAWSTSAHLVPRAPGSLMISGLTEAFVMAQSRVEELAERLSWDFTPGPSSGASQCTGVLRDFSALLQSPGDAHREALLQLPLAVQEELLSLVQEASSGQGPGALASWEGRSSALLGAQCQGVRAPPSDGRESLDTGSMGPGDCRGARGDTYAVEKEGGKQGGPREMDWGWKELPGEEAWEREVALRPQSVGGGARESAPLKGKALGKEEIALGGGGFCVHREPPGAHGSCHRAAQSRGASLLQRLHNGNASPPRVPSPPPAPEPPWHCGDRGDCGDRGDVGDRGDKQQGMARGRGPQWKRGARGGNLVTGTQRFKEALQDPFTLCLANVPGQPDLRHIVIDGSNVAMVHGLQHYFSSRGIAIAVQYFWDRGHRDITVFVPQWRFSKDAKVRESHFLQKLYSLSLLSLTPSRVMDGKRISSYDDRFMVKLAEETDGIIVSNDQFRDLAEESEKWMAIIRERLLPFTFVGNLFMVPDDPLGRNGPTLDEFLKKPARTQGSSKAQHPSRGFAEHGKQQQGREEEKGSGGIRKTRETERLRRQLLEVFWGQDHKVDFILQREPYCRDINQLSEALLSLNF
UniProt Q8IZH2, whole entry: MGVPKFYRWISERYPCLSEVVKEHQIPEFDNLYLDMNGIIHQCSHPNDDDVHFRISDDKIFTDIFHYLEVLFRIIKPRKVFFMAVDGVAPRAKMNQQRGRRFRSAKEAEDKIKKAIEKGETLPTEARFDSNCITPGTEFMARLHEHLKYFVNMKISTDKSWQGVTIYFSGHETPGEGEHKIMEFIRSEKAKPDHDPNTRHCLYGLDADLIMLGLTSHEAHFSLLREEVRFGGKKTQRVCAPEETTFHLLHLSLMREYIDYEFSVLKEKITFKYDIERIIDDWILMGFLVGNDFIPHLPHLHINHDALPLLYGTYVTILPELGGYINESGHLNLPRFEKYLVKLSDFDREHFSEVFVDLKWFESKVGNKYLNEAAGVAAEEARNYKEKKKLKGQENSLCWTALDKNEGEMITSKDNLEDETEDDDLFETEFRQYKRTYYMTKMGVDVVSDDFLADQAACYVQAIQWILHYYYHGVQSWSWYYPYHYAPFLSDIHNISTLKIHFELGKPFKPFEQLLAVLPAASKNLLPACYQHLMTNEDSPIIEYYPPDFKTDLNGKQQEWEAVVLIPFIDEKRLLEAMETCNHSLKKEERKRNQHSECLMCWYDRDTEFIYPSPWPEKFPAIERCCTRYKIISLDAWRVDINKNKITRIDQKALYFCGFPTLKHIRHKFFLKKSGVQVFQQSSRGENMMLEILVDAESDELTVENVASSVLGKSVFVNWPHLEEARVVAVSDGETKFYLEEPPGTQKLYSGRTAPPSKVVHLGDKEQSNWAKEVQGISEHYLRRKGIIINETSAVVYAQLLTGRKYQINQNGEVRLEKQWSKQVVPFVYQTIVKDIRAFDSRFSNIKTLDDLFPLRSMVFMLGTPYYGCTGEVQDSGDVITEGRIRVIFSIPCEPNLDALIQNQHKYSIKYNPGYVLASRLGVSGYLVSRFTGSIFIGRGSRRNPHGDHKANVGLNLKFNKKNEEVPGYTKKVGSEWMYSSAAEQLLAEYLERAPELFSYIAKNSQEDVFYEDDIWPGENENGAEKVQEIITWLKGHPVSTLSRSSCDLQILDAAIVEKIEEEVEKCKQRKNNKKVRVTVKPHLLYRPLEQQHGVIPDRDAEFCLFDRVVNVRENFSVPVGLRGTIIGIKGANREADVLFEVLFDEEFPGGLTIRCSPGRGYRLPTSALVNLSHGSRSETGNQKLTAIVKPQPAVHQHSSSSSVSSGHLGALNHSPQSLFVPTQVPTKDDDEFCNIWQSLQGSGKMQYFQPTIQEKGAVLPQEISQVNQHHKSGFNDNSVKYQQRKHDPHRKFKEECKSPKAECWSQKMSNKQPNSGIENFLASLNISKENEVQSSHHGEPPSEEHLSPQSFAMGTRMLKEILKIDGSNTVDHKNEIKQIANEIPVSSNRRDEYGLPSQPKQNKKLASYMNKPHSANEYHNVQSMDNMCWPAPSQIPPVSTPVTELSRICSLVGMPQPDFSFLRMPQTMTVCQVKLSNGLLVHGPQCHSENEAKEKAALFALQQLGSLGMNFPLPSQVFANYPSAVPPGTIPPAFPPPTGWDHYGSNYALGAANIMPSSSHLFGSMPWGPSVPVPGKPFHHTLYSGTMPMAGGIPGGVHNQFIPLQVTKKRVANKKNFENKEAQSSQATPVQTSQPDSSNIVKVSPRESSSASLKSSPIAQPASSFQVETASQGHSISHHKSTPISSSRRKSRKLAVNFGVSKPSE

These are yes or no findings as the source states them, for the method shown. Binding seen in cells or lysates may run through a third protein. Some binding calls cover weakened binding; strength is not graded here.

In experiment [1] the target is TRIM25 (E3 ubiquitin ligase), endogenous (human (endogenous in HEK293T and HeLa)) (UniProt Q14258). The experiment can be described thus: co-IP.
Experiment [2] deals with ZAP-long (ZAP-L), endogenous in HEK293T ZAP-S knockout cells (human (endogenous in HEK293T)) (UniProt Q7Z2W4). The experiment is described as follows: co-IP.

As for “KHNYN (endoribonuclease), endogenous (from UniProt O15037 1-678)”, the binding result in experiment [1] and in experiment [2] was “binds” in each case.
“TRIM25 (E3 ubiquitin ligase), endogenous (from UniProt Q14258 1-630)”: the binding entry in experiment [2] was “binds”.
As for “XRN1 (5'-3' exonuclease), endogenous (from UniProt Q8IZH2 1-1706)”, the binding entry in experiment [1] was “binds”.
